PubChem BioAssay AID445 (National Center for Advancing Translational Sciences (NCATS), 2006)
The list shows a part of the results. The main result of the screen is listed elsewhere. These columns were measured beside it and carry no call. Most of these compounds were active or inconclusive in the main read-out, so they are no random draw. Words in brackets tell the shape of the fitted curve; partial curves, single points and poor fits give uncertain potencies.

Assay: IkB Signaling
Conditions: ABC-DLBCL IkBa-CBG/CBR dual luciferase ratio (green luciferase fused to IkBa over red control in OCI-Ly3 lymphoma cells), 4 h
Method in brief: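 In this assay, an IκBα–CBG68 fusion accumulates when IKK-driven degradation is blocked; native CBR normalizes for cell number. OCI-Ly3 cells were treated 4 h with compound and doxycycline, then green and red light read after Chroma-Glo addition.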

[1] = measured here: control luc red channel unless noted
[2] = measured here: IkB-luc green channel
[3] = measured here: control luc red channel

In the case of CN(CC(=O)N1CCN(c2ccccn2)CC1)S(=O)(=O)c1ccc2ccccc2c1, the AC50 [1] is reported as 15.8 µM [falling, partial curve].

In the case of O=C(Nc1cccc(Br)c1)c1cc(-c2ccc3c(c2)OCCO3)on1, the AC50 [1] is reported as 0.794 µM [falling, partial curve].

With CCn1nnc(NC(=O)c2ccc(-c3ccc(Cl)cc3)o2)n1 the AC50 [1] was 12.6 µM [falling, partial curve].

In the case of Cc1ccc(-n2cnc3cc(C(=O)NCc4ccccc4Cl)ccc32)c(C)c1, the AC50 [1] is reported as 25.1 µM [falling, single point].

With COc1ccc(CC(=O)NCc2ccc3c(c2)CCN3C(=O)c2cccc(C)c2)cc1 the AC50 [1] was 0.1 µM [falling, full curve, poor fit].

In the case of Cc1nc(-n2nc(C)c(Cc3ccc4c(c3)OCO4)c2C)sc1C(=O)Nc1ccc(Cl)cc1, the AC50 [1] is reported as 15.8 µM [falling, partial curve].

For Cc1cccc(Cn2cccc2CNS(=O)(=O)c2ccc(C)c(C)c2)c1, the AC50 [1] was 31.6 µM [falling, partial curve].

With O=C(c1ccco1)n1nc(-c2ccc(Cl)cc2)nc1NCc1ccc(F)cc1 the AC50 [1] was 10 µM [rising, partial curve].

In the case of COc1ccc(C2C(C(=O)Nc3ccccc3)=C(C)Nc3nc(-c4ccccc4Cl)nn32)cc1OC (stereo unspecified), the AC50 [1] is reported as 20 µM [falling, single point].

In the case of CCCn1nnc2sc3c(c2c1=O)CCC(C)C3 (stereo unspecified), the AC50 [1] is reported as 2 µM [rising, full curve].

In the case of Cc1cc(C)c2sc(N3CCN(C(=O)C4CC4)CC3)nc2c1, the AC50 [1] is reported as 12.6 µM [rising, partial curve].

For CCc1ccc2ncc3c(-c4ccc(C)cc4)nn(CC(=O)Nc4ccc(C)cc4)c3c2c1, the AC50 [1] was 0.0316 µM [rising, full curve, poor fit].

With COc1ccc(Oc2nc3c(C)cccn3c(=O)c2/C=C(\C#N)c2nc3ccccc3[nH]2)cc1 the AC50 [1] was 0.2 µM [falling, full curve].

In the case of Cc1onc(-c2ccccc2Cl)c1C(=O)OCC(=O)Nc1ccc2c(c1)OCO2, the AC50 [1] is reported as 39.8 µM [falling, single point].

In the case of Cc1ccccc1CNCCSc1nnnn1-c1ccccc1, the AC50 [1] is reported as 0.398 µM [falling, partial curve, poor fit].

In the case of COc1ccccc1OCc1ccc(C(=O)n2nc(C)c(Cl)c2C)o1, the AC50 [1] is reported as 15.8 µM [falling, partial curve].

With COc1ccc(CNC(=O)CCc2c(C)c3cc4c(C)coc4cc3oc2=O)cc1 the AC50 [1] was 20 µM [falling, partial curve, poor fit].

In the case of COc1ccc(CNC(=O)c2nc(S(=O)(=O)Cc3ccccc3)ncc2Cl)cc1, the AC50 [2] is reported as 6.31 µM [rising, single point] and the AC50 [3] is reported as 10 µM [falling, partial curve].

With CCOc1ccccc1-n1c(SCC(=O)Nc2nccs2)nnc1-c1ccoc1C the AC50 [1] was 25.1 µM [falling, partial curve].

For COc1ccc(CCNC(=O)CCc2c(C)nc3c(-c4ccc(F)cc4)c(C)nn3c2C)cc1OC, the AC50 [1] was 39.8 µM [falling, single point].

With Cc1ccc(-n2c(SCc3nc(-c4ccc(Cl)cc4)no3)nnc2-c2ccncc2)cc1 the AC50 [1] was 15.8 µM [falling, partial curve].

In the case of COc1ccc(-c2nc(CSCC(=O)N3CCN(c4cccc(C)c4)C(C)C3)c(C)o2)cc1OC (stereo unspecified), the AC50 [2] is reported as 15.8 µM [falling, partial curve] and the AC50 [3] is reported as 10 µM [falling, partial curve].

In the case of CCc1ccc(NC(=O)CN(c2ccc(C)cc2)S(=O)(=O)c2c(C)nn(C)c2C)cc1, the AC50 [1] is reported as 15.8 µM [falling, partial curve].

With CCOc1cccc(CC(=O)N2CCc3c([nH]c4ccccc34)C2c2ccc(OC)cc2)c1OCC (stereo unspecified) the AC50 [1] was 10 µM [falling, partial curve].

In the case of COc1ccc(-c2c(C)nn3c(C(F)(F)F)cc(C)nc23)cc1OC, the AC50 [1] is reported as 0.794 µM [falling, full curve, poor fit].

For Cc1ccccc1CN1C(=O)c2ccccc2S(=O)c2ccc(C(=O)NCc3ccccc3)cc21 (stereo unspecified), the AC50 [1] was 6.31 µM [falling, full curve, poor fit].

In the case of CCCc1nn2c(=O)cc(COC(=O)c3ccccc3NC(=O)C3CCCCC3)nc2s1, the AC50 [1] is reported as 39.8 µM [falling, single point].

In the case of Cc1ccc(NC(=O)CC(O)(C(F)(F)F)C(F)(F)F)c(Br)c1, the AC50 [1] is reported as 25.1 µM [falling, single point].

In the case of COC(=O)c1c(C)sc(-c2c(-c3ccc(F)cc3)[nH]c3[nH]c(=O)[nH]c(=O)c23)c1O, the AC50 [1] is reported as 31.6 µM [falling, single point].

For Cc1ccc(CNC(=O)c2cnn3c(C)c(Cc4c(F)cccc4Cl)c(C)nc23)cc1, the AC50 [1] was 39.8 µM [falling, single point].

For CCOc1ccc(CCNC(=O)c2ccc(C)c(-n3c(C)nc4cccnc43)c2)cc1OCC, the AC50 [1] was 39.8 µM [falling, single point].

With Cc1cccc(-c2nnc(SCC(=O)NC3CCCCC3)o2)c1 the AC50 [1] was 12.6 µM [falling, partial curve].

For CN1/C(=C\C(=O)COc2ccc3c(c2)OCO3)C(C)(C)c2ccccc21, the AC50 [1] was 31.6 µM [falling, partial curve].

For COc1ccc(N(Cc2cccs2)C(=O)COc2ccc([N+](=O)[O-])cc2)cc1, the AC50 [1] was 31.6 µM [falling, single point].

For CCOc1ccc(-c2cc(CCCC(=O)NCc3cccnc3)no2)cc1, the AC50 [1] was 5.01 µM [falling, partial curve].

In the case of CCOc1ccc(C(=O)Nc2cc(-c3ccccc3)no2)cc1, the AC50 [1] is reported as 0.251 µM [rising, full curve].

For CCN(Cc1ccccc1)C(=O)c1cc2ccc3cccnc3c2[nH]1, the AC50 [1] was 31.6 µM [falling, single point].

In the case of O=C1c2oc3ccccc3c(=O)c2C(c2cccc(O)c2)N1Cc1ccc(F)cc1 (stereo unspecified), the AC50 [1] is reported as 25.1 µM [falling, single point].

With CCOc1ccc(N(CC(=O)Nc2ccc3c(c2)OCO3)S(=O)(=O)c2ccccc2)cc1 the AC50 [1] was 20 µM [falling, partial curve].
